Values quoted from earlier work, collected in patent US12599666B2, “Photolytic compounds and triplet-triplet annihilation mediated photolysis” (University of Massachusetts, priority 2019, dated 2026).
At least one compound was matched to its structure with a doubt left. Marks after values point to notes of the source that are not given here.

Conditions: cited from earlier work

In the case of [Pd+2].c1ccc(-c2c3nc(c(-c4ccccc4)c4[n-]c(c(-c5ccccc5)c5nc(c(-c6ccccc6)c6[n-]c2c2ccccc62)-c2ccccc2-5)c2ccccc42)-c2ccccc2-3)cc1 [PdTPBP, meso-tetraphenyltetrabenzoporphine palladium complex], the “τT triplet excited lifetime of Sen” value is given as 223.7^i μs.
